Results on 62 compounds are retold here after PubChem BioAssay AID445 (National Center for Advancing Translational Sciences (NCATS), 2006).

This assay is described as follows: IkB Signaling. Conditions: ABC-DLBCL IkBa-CBG/CBR dual luciferase ratio (green luciferase fused to IkBa over red control in OCI-Ly3 lymphoma cells), 4 h. The method in brief: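 In this assay, an IκBα–CBG68 fusion accumulates when IKK-driven degradation is blocked; native CBR normalizes for cell number. OCI-Ly3 cells were treated 4 h with compound and doxycycline, then green and red light read after Chroma-Glo addition.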
Setting [1] is: measured here: control luc red channel unless noted.

The other results are listed elsewhere or left out. The main result of the screen is listed elsewhere. These columns were measured beside it and carry no call. Most of these compounds were active or inconclusive in the main read-out, so they are no random draw. Words in brackets tell the shape of the fitted curve; partial curves, single points and poor fits give uncertain potencies.

Consider `CN1CCN(C(=O)CSc2nc(-c3cccs3)cc(-c3cccs3)c2C#N)CC1`, for which the AC50 – broadly, the midpoint of the concentration-response curve, whichever way the signal moves – under setting [1] was 15.8 µM [falling, partial curve].
On to `CC(C)OCCCNC(=O)CCCn1c(=O)[nH]c2ccsc2c1=O`, for which the AC50 under setting [1] was 0.0251 µM [falling, partial curve, poor fit].
`Cc1cc(C)cc(Nc2cc(C(=O)NCCCN(Cc3ccccc3)C(C)C)c3ccccc3n2)c1`: under setting [1], the AC50 was 7.94 µM [falling, full curve].
Turning to `CCOc1ccc(CNC(=O)c2cc(=O)[nH]c3ccc(S(=O)(=O)N4CCCCC4)cc23)cc1`, the AC50 under setting [1] is 0.316 µM [rising, full curve].
On the same count and under the same terms, with `CCN(Cc1ccccc1)C(=O)Cn1c(=O)n(-c2ccc(F)c(Cl)c2)c(=O)c2sc3ccccc3c21` the figure was 10 µM [falling, partial curve]; with `CCC(C)(C)n1nnnc1C(c1cc2ccc(OC)cc2[nH]c1=O)N1CCc2ccccc21` (stereo not drawn), 20 µM [falling, partial curve].
Consider `COc1ccc(-c2nc3c4cnn(-c5ccccc5F)c4ncn3n2)cc1`, for which the AC50 under setting [1] was 0.1 µM [rising, full curve].
On to `Cc1ccc(NC(=O)c2oc3ccc(S(=O)(=O)N4CCCCC4)cc3c2C)cc1C`, for which the AC50 under setting [1] was 3.16 µM [falling, full curve].
Turning to `Cc1ccc(C)c2sc(NC(=O)c3ccc(S(=O)(=O)N4CCCC4)cc3)nc12`, under setting [1], the half-maximal activity concentration (AC50) is 1 µM [falling, full curve].
Consider `CCN1CCN(CCCNC(=O)c2cc3c(=O)n(CC)c4ccccc4c3s2)CC1`, for which, under setting [1], the AC50 is 2 µM [falling, partial curve].
On the same count and under the same terms, as for `CC(=O)N1CCOc2cc(S(=O)(=O)NCc3ccc(C)cc3)c(C)cc21`, the figure is 0.631 µM [falling, full curve]; as for `COc1ccc(-c2cc(C(F)(F)F)nc(SCC(=O)N(C)Cc3ccccc3)n2)cc1OC`, 7.94 µM [falling, partial curve]; as for `COc1cc(O)ccc1C1CC(=O)Nc2c1c(=O)nc(SCc1ccccc1C)n2C` (stereo not drawn), 39.8 µM [falling, single point].
Still for that read-out and setting: with `CCN1c2ccccc2-c2nc(SCC(=O)Nc3cccc(C(F)(F)F)c3)ncc2S1(=O)=O` the figure was 31.6 µM [falling, single point].
In the case of `Cc1ccc(C)c(CN2C(=O)c3ccccc3S(=O)c3ccc(C(=O)N4CCC(C)CC4)cc32)c1` (stereo not drawn), the half-maximal activity concentration (AC50) under setting [1] is 25.1 µM [falling, partial curve].
Consider `CCOC(=O)c1cccc(NC(=O)c2cc(S(=O)(=O)N3CCCCCC3)cn2C)c1`, for which the half-maximal activity concentration (AC50) under setting [1] was 10 µM [falling, partial curve].
In the case of `O=c1oc2c3c4c(cc2cc1-c1nc2ccccc2[nH]1)CCCN4CCC3`, the half-maximal activity concentration (AC50) by setting is: (measured here: IkB-luc green channel) 12.6 µM [rising, partial curve]; (measured here: control luc red channel) 0.01 µM [falling, full curve].
For the compound `CC1CC(C(O)c2ccccn2)C(=O)C(C(O)c2ccccn2)C1` (stereo not drawn), under setting [1], the AC50 is 3.16 µM [rising, partial curve] [measured here: IkB-luc green channel].
Consider `Cc1cc(C)c2c(=O)n(CC(=O)N3CCC(N4CCCCC4)CC3)sc2n1`, for which the AC50 under setting [1] is 31.6 µM [falling, single point].
Same read-out and setting: with `Cc1ccccc1NS(=O)(=O)c1ccc2[nH]cc(C(=O)NC(C)c3ccccc3)c(=O)c2c1` (stereo not drawn) the figure was 25.1 µM [falling, single point]; with `O=C(Nc1ccc(-c2noc(CCc3ccccc3)n2)cc1)c1cccnc1`, 7.94 µM [falling, full curve, poor fit].
On the same count and under the same terms, with `COc1ccccc1CCNC(=O)C(=O)NCC(c1cccs1)S(=O)(=O)c1ccc(C)cc1` (stereo not drawn) the figure was 10 µM [falling, partial curve]; with `CCc1ccc(CNC(=O)COc2cc(=O)n(CC)c3ccccc23)cc1`, 39.8 µM [falling, single point].
For the compound `CC(=O)N1CCCC1c1nc2ccccc2n1Cc1cccc(Cl)c1` (stereo not drawn), the AC50 under setting [1] is 1.58 µM [falling, full curve].
Take `CCC(=O)N1CCN(c2ccccc2NC(=O)COc2cc(C)ccc2C(C)C)CC1`: the AC50 under setting [1] was 12.6 µM [falling, partial curve].
With `COc1cc(NC(=O)CC(c2ccc(C)cc2)N2Cc3ccccc3C2=O)cc(OC)c1` (stereo not drawn), under setting [1], the AC50 is 15.8 µM [falling, single point].
Turning to `Cc1ccc(-c2cc(-c3ccc4c(c3)OCO4)c(C#N)c(N)n2)o1`, the AC50 under setting [1] was 31.6 µM [rising, single point] [measured here: IkB-luc green channel].
Still for that read-out and setting: as for `CCCN(C(=O)c1cn(C)c(=O)c2ccccc12)c1ccccc1C`, the figure is 15.8 µM [falling, partial curve].
The same measure, in the same setting: with `CCOc1ccccc1CN1CCc2nc(N3CCN(c4ccccc4F)CC3)ncc2C1` the figure was 12.6 µM [falling, partial curve]; with `CCCOc1ccc(CN(C(=O)c2cc(=O)c3ccc(C)cc3o2)C2CCS(=O)(=O)C2)cc1` (stereo not drawn), 10 µM [rising, partial curve].
On the same count and under the same terms, as for `COc1cc(C)ccc1OCCSc1nc(-c2cccc(C)c2)nc2cc(=O)[nH]n12`, the figure is 3.98 µM [falling, full curve]; as for `O=C(Cc1ccc(S(=O)(=O)N2CCCC2)s1)Nc1nc2c(s1)CCCC2`, 39.8 µM [falling, single point]; as for `Cc1c(C(=O)NCc2ccco2)oc2ccc(S(=O)(=O)N3CCC4(CC3)OCCO4)cc12`, 12.6 µM [falling, partial curve].
As to `CCNC(=O)c1ccc2nc(CCc3ccccc3)oc2c1`, the AC50 under setting [1] was 5.01 µM [rising, partial curve].
Turning to `Cc1cc(Nc2ccccc2C)nc(-n2nc(C)cc2C)n1`, under setting [1], the AC50 was 5.01 µM [falling, partial curve, poor fit].
Regarding `Cc1n[nH]c(C)c1S(=O)(=O)N1CCCC(C(=O)Nc2ccc(Br)cc2)C1` (stereo not drawn), the AC50 under setting [1] is 15.8 µM [falling, single point].
Consider `COc1ccc(CCNC(=O)c2cc(C)nc3c2c(C)nn3-c2ccc(C)cc2)cc1OC`, for which the AC50 under setting [1] was 31.6 µM [falling, single point].
For the compound `COc1ccc(CCNC(=O)C(=O)NCC(c2cccs2)S(=O)(=O)c2cccs2)cc1` (stereo not drawn), the concentration at half-maximal activity (AC50) under setting [1] was 39.8 µM [falling, single point].
Same read-out and setting: as for `COc1ccc(C(=O)n2nc(-c3cccnc3)nc2NCc2ccccc2)cc1OC`, the figure is 20 µM [falling, partial curve]; as for `O=C(CN1CCN(S(=O)(=O)c2ccc(Cl)cc2)CC1)Nc1ccc2c(c1)OCO2`, 15.8 µM [falling, partial curve]; as for `COc1ccc2nc(SCC(O)c3cccc(Br)c3)[nH]c2c1` (stereo not drawn), 39.8 µM [falling, single point].
For `Cc1ccc(Sc2ccc(N3CCCC(C(=O)Nc4ccc(F)cc4)C3)nn2)cc1` (stereo not drawn), the AC50 under setting [1] is 10 µM [falling, partial curve].
On to `Clc1ccc2[nH]c3c(NCC4CCCO4)ncnc3c2c1` (stereo not drawn), for which the AC50 under setting [1] was 10 µM [falling, partial curve].
On the same count and under the same terms, as for `Cc1nn(-c2ccc(N3CCCCC3)nn2)c(C)c1CCC(=O)NCc1ccccc1`, the figure is 6.31 µM [falling, partial curve, poor fit].
Same read-out and setting: as for `O=C(Cn1nc(N2CCN(c3ccccc3)CC2)ccc1=O)NCc1ccccc1F`, the figure is 25.1 µM [falling, partial curve]; as for `Cc1cccc(C(=O)Nc2ccccc2OCc2cc(=O)n3ccccc3n2)c1`, 25.1 µM [falling, partial curve, poor fit]; as for `Cc1ccc(-c2nnc(SCC(=O)NC(C)(C)C)nc2-c2ccc(C)cc2)cc1`, 31.6 µM [falling, single point].
As to `Cn1c(=O)c2c(nc(NCCc3ccccc3)n2Cc2ccccc2Br)n(C)c1=O`, the AC50 under setting [1] was 0.501 µM [rising, full curve, poor fit].
With `CCOc1ccc(C(=O)N(Cc2nc(-c3cccc(C)c3)no2)C(C)C)cc1`, under setting [1], the concentration at half-maximal activity (AC50) is 31.6 µM [falling, single point].
In the case of `CCOc1cc(S(=O)(=O)NCCc2c(C)[nH]c3ccc(C)cc23)ccc1F`, the AC50 under setting [1] is 31.6 µM [falling, partial curve].
For the compound `COc1ccc2c(c1)c(CC(=O)Nc1cc(C)cc(C)c1)c(C)n2C(=O)c1ccc(Cl)cc1`, under setting [1], the AC50 was 7.94 µM [falling, partial curve].
On to `CCN(CC)C(=O)c1sc2c(c1C)c(=O)n(Cc1ccccc1)c(=O)n2Cc1cc(C)ccc1C`, for which the AC50 under setting [1] is 25.1 µM [falling, partial curve].
Turning to `COc1ccc(C)cc1NC(=O)c1sc2nc(-c3ccc(F)cc3)cn2c1C`, under setting [1], the AC50 was 39.8 µM [rising, single point].
The same measure, in the same setting: with `Cc1ccnc(NC(=O)Nc2cccc(F)c2)c1` the figure was 5.01 µM [falling, partial curve].
In the case of `c1ccc(-c2nc(NCc3cccnc3)c3oc4ccccc4c3n2)cc1`, the AC50 under setting [1] was 15.8 µM [falling, partial curve].
With `Cc1cc(C)c2oc(C(=O)Nc3ccc(S(=O)(=O)Nc4ncccn4)cc3)cc(=O)c2c1`, under setting [1], the AC50 is 39.8 µM [falling, single point].
As to `O=C(CCCn1ncn2c(cc3occc32)c1=O)NCc1ccccc1F`, the AC50 under setting [1] is 25.1 µM [falling, single point].
With `COc1ccccc1NC(=O)c1sc(-c2ccc(Cl)cc2)cc1N`, the AC50 under setting [1] is 0.2 µM [rising, full curve].
For the compound `CCc1ccc2c(c1)NC(c1ccc(F)cc1)=NC(c1ccncc1)=N2`, under setting [1], the AC50 was 15.8 µM [falling, partial curve].
`CCOc1cccc(C(=O)Nc2ccc3oc(-c4ccncc4)nc3c2)c1`: the AC50 under setting [1] is 3.16 µM [falling, full curve].
Same read-out and setting: as for `COc1cc(OC)c(NS(=O)(=O)c2c(C)nc3sc(C)cn3c2=O)cc1Cl`, the figure is 25.1 µM [falling, single point]; as for `Cc1ccc(-c2noc(-c3cccnc3NCc3ccco3)n2)cc1`, 15.8 µM [falling, single point].
